Experimental data reported in patent publication US20240067748A1.
Where a chain is given by its changes, count along the chain named. Results are given in words; binding and its absence hold for the method and conditions named. Some entries that bind do so weakly or less than the wild type.

B1: PR001153 (antibody, human IgG1, kappa, V domains shown)
VH: QVQLQESGPGLVKPSGTLSLTCAVSGGSISSSNWWSWVRQPPGKGLEWIGEIYHDGSTDYNPSLKSRVIISVDKSKNQFSLKVRSVTAADTAVYYCARDNWGFDYWGQGTLVTVSS
VL: EIVLTQFPGTLSLSPGERATLSCRSSQSVSSSYLAWYQQKPGQAPRLLISGASSRATGIPDRFSGSGSGTDFTLTISRLEPEDFAVYYCQQYGSSPRTFGQGTKVEIKR
B2: PR001132 (antibody, human IgG1, kappa, V domains shown)
VH: QVELVESGGGVVQPGRSLRLSCGASGFTFSSYNMYWVRQAPGKGLEWVAGIWDDGNNKYYANSVKGRFTISRDNSKNTLYLQMNSLRTEDTALYYCAKDGWGSYGEYFQHWGQGTLVTVSS
VL: DIQMTQSPSSLSASVGERVTITCRASQNINSYLSWYQQKPGKAPKLLIYAASSLQNGVPSRFSGSGSGTDFTLTISSLQPEDFATYYCQQSFSTPPITFGQGTRLEIKR
B3: PR001150 (antibody, human IgG1, kappa, V domains shown)
VH: QVQLVESGGGVVQPEKSLRLSCAASGFTFSHYGMHWVRQVPGKGLEWVAVIWYDGIKRYYVESVKGRFTISRDNSKNTLYLQMNRLRAEDTAVYYCARDGGFGESNYYGLDVWGQGTTVTVSS
VL: DIQLTQSPSFLSASVGDRVTITCRASQGINSYLGWYQRKPGKAPKLLIYIASTLQSGVPSRFSGSGSGTEFTLTISSLQPEDFATYYCQQLNSYPYTFGQGTKLEIKR
B4: PR001165 (antibody, human IgG1, kappa, V domains shown)
VH: B3 VH with E15G, K16R, A23E, V40A, R58T, Y80N
VL: B3 VL with N30S, R38Q
B5: PR001159 (antibody, human IgG1, kappa, V domains shown)
VH: B3 VH with E15G, K16R, A23E, V40A, R58T, Y59N, Y80N
VL: B3 VL with N30S, R38Q
B6: PR001138 (antibody, human IgG1, kappa, V domains shown)
VH: QVQLQESGPRLVKPSETLSLTCAVSGYSISSGYYWGWIRQSPGMGLEWIAYIYHDGSTYCNPSLKSRVTMSVDTSKNQFSLKLRSVTAADTAVYYCARDGAAAPFDYWGQGTLVTVSS
VL: DIQMTQSPSTLSASVGDRVTITCRASQSISNWLAWYQQKPGKAPKVLIYKASSLESGVPSRFSGSGSGTEFTLTINSLQPDDFATYYCQQYDSYSITFGQGTRLEIKR
B7: PR001128 (antibody, human IgG1, kappa, V domains shown)
VH: QVQLQESGPGLVKPSGTLSLTCAVSGGSISSSNWWSWVRQPPGKGLEWIGEIFHSGTTYYNPSLKSRVTILVDKSKNQFSLKLSSVTAADTAVYYCARDNTKSWDHFDHWGQGTLVTVSS
VL: EIVLTQSPATLSLSPGERATLSCRASQSVGSYLAWYQQKPGQAPSLLIYDASNRATGIPARFSGSGSGTDFTLTISSLEPEDFAVYYCQQRTNWYTFGQGTKLEIKR
B8: PR001130 (antibody, human IgG1, kappa, V domains shown)
VH: QVQLQESGPGLVKPSGTLSLTCAVSGDSISSHNWWSWVRQPPGKGLEWIGEIYHSGITSYNPSLKSRVTISVDKSKNQFSLKLNSVTAADTAMYYCARGSGVISYFDYWGQGTLVTVSS
VL: DIQMTQSPSTLSASVGDRVTITCRASQSIGNWLAWYQQKPGKAPKLLIYKASSLESGVPSRFSGSGSGTEFTLTISSLQPDDFATYYCQQYDSYSPITFGQGTRLEIKR
B9: PR001166 (antibody, human IgG1, kappa, V domains shown)
VH: QVQLQESGPGLVKPSETLSLTCAVSGYSISSGYFWAWIRQPPGKGLEWIGSIYHSGRTHYNPSLKSRVIISLDTSKNQFSLKLRSVTAADSAVYYCAREGYASGSYYWGQGTLVTVSS
VL: EIVMTQSPATLSVSPGERATLSCRSSQSVNNYLAWFQQKPGQAPRLLIYDSSTRATGIPARFSGSGSGTEFTLTISSLQSEDFAFYFCQQYENWPLTFGGGTKVEIKR
B10: PR001170 (antibody, human IgG1, kappa, V domains shown)
VH: B9 VH with S30N, K44M
VL: B9 VL with N31S
B11: PR001133 (antibody, human IgG1, kappa, V domains shown)
VH: QVNLVESGGGVVQPGRSLKLSCAASGFTFSSYGMHWVRQAPGKGLEWVALIWSDGTNRYYTESVKGRFTISRDNSKNTLSLQMKSLRAEDTAVYYCAKDGWGTYGEYFQHWGQGTLVTVSS
VL: B2 VL with E17D, S34H, N56S, T85I, F92Y, T94I
B12: PR001142 (antibody, human IgG1, kappa, V domains shown)
VH: B8 VH with H32N, H54P, S55G, I57N, T58P, S59N, M93V
VL: B8 VL with N31H, S63R, D92S, T103S

The binders below were run against monkey Trop2 protein (Sino Biological, #90893-C08H) (monkey) (assay: BLI, Octet RED96, AHC sensor).

binding, binds:
B1
B2
B3
B4
B5
B6
B7
B8
B9
B10

What follows are binders tested against monkey Trop2 on CHO-K1 cells (monkey) (assay: flow cytometry on CHO-K1/monkey Trop2 cells).

binding, binds:
B11
B4
B7
B8
B12
B9

Each binder was assayed against monkey Trop2 protein (Sino Biological, #90893-C08H) (monkey) (assay: SPR, Biacore T200, antigen immobilised on CM5 chip).

binding, binds:
B4
B12
B9
